The assay has as its target T1, Flag-tagged p45 (mouse) (UniProt Q8CJ26).
T1 sequence: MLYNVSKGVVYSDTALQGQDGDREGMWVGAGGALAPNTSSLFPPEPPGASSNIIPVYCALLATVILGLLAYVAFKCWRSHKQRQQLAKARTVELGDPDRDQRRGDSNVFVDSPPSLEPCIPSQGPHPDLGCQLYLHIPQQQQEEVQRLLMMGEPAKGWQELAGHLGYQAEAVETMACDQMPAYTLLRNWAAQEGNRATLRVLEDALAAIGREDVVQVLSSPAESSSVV
Description: co-IP; HEK293 cells with Flag-p45 and V5-tagged FADD constructs; lysis in RIPA buffer (150 mM NaCl, 1% NP-40, 0.5% DOC, 0.1% SDS, 50 mM Tris pH 8.0); immunoprecipitated with anti-Flag M2, blotted with anti-V5.

This passage reports binding results from publication PMC3720591.

Results are given in words; binding and its absence hold for the method and conditions named. Binding seen in cells or lysates may run through a third protein. Where a sequence is shown, tags or fusion partners need not be part of it.

On to “V5-tagged FADD-ΔDED (mouse) (domain or fragment)”, for which the binding result is given as “no binding”.
